Experimental findings from PMC12682277 are described below.

For at least one entry, the source does not settle the construct or the ends of the probe. Results from cells or extracts need not show a direct contact. For part of these data: No signal at the amounts used counts as a negative. For part of these data: At least one verdict rests on a figure or table, not on a statement of the authors.

Series [1] concerns RAG1 (endogenous, U87 extract) + RAG2 (endogenous, U87 extract). The experiment in a line: pull-down. As to conditions: U87 cell-free extract, immunoblot, pull-down: 1X PBS, 10 mM NaCl, protease inhibitors, 0.5 mM PMSF, 2 h 4 C, protein in an extract.
Series [2] concerns RAG1 (endogenous, Nalm6 extract) + RAG2 (endogenous, Nalm6 extract). Nature of the series: pull-down. As to conditions: Nalm6 cell-free extract, immunoblot; pull-down: 1X PBS, 10 mM NaCl, protease inhibitors, 0.5 mM PMSF, 2 h 4 C; protein in an extract; label: 5'-biotin on AKN1.

On to “GATCAGCTGATAGCTACCACAGTGCTACAGACTGGAACAAAAACCCTGCT / TAGCAGGGTTTTTGTTCCAGTCTGTAGCACTGTGGTAGCTATCAGCTGAT [biotinylated 12RSS (AKN1/AKN2)]”, for which the binding result in series [1] (label: 5'-biotin on AKN1) and in series [2] was “binds” throughout.

Regarding “TTTTTTTTTTGACCATTGGCGATCTCAGCGTACGGACGACTTCGGATGACTTTTTTTTTT / GTCATCCGAAGTCGTCCGTACGCTGAGATCGCCAATGGTC [biotinylated MS20/MS21 control]”, the binding result in series [1] (label: 5'-biotin on MS20) is recorded as “no binding”.
